40 targets from the supplement of paper PMC7666118 can be followed below.

By UniProt entry, the sequences of proteins in these tests, tags left out. Where a name states a change or a piece, a line headed by the entry shows the natural chain unless it says otherwise.
UniProt Q9BSJ8: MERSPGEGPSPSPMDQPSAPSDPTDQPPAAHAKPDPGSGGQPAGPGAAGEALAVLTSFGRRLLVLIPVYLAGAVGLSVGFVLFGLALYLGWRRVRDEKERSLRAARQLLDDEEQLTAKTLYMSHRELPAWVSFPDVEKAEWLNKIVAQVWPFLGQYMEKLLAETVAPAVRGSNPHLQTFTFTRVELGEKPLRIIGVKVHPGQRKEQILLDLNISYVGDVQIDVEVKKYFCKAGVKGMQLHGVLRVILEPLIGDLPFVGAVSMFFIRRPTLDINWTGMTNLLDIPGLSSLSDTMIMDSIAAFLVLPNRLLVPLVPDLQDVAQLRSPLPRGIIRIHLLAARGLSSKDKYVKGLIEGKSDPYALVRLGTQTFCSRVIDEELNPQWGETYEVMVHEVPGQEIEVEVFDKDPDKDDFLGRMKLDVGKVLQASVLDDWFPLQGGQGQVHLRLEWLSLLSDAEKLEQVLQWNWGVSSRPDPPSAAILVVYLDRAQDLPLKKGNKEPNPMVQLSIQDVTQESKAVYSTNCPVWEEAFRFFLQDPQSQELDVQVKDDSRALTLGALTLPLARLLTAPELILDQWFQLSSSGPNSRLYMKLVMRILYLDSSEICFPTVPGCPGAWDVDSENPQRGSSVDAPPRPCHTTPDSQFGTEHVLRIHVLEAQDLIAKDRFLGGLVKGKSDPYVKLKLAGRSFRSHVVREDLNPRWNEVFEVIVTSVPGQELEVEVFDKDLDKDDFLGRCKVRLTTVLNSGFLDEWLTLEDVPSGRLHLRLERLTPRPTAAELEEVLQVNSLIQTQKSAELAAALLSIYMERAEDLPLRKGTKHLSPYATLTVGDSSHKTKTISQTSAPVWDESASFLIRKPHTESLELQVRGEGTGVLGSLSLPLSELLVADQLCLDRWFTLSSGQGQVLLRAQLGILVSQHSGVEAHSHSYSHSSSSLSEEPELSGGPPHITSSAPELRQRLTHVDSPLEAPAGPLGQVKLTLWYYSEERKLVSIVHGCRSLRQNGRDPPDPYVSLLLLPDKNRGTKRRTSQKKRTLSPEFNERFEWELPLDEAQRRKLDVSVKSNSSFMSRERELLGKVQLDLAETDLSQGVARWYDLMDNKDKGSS
UniProt P62873, whole entry: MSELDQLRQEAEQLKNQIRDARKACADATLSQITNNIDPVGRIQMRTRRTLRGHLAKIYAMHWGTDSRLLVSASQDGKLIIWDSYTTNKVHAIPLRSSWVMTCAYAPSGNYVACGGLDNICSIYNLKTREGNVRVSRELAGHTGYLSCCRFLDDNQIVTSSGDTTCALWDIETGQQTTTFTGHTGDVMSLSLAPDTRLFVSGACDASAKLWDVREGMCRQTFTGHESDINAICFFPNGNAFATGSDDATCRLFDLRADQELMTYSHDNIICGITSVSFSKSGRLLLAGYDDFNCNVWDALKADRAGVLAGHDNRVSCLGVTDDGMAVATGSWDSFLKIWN
UniProt Q14344, whole entry: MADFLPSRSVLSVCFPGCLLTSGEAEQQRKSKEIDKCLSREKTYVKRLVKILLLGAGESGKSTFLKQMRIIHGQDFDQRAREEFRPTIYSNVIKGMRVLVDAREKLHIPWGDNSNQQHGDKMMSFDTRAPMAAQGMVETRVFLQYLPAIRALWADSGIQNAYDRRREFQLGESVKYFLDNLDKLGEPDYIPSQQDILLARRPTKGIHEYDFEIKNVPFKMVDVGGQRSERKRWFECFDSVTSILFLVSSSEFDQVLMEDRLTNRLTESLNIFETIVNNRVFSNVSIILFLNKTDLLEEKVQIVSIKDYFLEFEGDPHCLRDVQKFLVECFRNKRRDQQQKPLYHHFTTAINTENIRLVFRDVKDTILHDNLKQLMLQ
UniProt Q9BWH2: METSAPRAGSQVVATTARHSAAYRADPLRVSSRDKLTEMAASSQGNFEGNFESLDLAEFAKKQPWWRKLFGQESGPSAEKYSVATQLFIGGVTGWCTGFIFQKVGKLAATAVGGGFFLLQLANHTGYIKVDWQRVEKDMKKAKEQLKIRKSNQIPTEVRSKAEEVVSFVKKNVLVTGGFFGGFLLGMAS
UniProt Q96CN9: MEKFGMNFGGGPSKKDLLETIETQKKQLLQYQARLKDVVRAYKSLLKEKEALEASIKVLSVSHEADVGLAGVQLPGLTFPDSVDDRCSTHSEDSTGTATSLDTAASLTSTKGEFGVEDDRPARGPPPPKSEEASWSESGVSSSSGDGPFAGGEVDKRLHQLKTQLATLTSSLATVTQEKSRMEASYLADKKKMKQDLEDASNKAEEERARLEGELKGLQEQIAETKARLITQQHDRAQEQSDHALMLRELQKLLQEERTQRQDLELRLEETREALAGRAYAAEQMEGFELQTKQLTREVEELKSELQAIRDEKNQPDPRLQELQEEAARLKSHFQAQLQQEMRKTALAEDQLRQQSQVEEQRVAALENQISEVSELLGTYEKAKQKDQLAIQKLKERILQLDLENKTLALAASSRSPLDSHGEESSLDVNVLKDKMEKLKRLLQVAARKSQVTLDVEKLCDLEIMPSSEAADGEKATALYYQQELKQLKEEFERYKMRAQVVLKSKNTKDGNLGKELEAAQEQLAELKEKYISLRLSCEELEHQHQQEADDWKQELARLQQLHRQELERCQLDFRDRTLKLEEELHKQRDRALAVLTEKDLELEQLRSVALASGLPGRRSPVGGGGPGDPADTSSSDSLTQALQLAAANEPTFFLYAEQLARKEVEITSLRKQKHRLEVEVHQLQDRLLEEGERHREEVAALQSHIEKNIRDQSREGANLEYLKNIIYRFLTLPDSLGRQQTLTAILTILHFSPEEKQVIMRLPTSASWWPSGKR
UniProt Q9UET6: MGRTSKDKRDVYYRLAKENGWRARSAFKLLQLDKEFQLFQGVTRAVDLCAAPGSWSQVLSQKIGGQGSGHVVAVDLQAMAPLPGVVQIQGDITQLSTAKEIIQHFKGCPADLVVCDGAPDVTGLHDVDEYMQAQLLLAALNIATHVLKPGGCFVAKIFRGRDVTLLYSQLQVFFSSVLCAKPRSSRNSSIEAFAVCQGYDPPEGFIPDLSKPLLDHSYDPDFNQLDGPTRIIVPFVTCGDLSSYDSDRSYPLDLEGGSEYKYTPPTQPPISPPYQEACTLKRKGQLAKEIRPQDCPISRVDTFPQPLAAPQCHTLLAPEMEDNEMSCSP
UniProt Q9BSK4: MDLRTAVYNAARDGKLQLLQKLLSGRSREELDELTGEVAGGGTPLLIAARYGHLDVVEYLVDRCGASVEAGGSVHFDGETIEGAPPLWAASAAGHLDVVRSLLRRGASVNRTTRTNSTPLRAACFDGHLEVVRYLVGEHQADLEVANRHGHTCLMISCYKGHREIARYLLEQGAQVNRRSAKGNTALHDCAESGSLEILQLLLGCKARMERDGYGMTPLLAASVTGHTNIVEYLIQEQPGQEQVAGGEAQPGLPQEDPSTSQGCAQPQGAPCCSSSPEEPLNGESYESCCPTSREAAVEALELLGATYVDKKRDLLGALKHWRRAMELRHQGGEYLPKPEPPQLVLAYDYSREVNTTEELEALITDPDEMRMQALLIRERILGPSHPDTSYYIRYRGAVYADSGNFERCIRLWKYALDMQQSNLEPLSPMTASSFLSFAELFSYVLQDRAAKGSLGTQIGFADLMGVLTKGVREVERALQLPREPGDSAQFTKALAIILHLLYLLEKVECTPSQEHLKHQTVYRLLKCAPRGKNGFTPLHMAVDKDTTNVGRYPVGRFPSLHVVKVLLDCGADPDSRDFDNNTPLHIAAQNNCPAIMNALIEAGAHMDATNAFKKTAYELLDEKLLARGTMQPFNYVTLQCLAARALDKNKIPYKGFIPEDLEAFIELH
UniProt Q96RP9: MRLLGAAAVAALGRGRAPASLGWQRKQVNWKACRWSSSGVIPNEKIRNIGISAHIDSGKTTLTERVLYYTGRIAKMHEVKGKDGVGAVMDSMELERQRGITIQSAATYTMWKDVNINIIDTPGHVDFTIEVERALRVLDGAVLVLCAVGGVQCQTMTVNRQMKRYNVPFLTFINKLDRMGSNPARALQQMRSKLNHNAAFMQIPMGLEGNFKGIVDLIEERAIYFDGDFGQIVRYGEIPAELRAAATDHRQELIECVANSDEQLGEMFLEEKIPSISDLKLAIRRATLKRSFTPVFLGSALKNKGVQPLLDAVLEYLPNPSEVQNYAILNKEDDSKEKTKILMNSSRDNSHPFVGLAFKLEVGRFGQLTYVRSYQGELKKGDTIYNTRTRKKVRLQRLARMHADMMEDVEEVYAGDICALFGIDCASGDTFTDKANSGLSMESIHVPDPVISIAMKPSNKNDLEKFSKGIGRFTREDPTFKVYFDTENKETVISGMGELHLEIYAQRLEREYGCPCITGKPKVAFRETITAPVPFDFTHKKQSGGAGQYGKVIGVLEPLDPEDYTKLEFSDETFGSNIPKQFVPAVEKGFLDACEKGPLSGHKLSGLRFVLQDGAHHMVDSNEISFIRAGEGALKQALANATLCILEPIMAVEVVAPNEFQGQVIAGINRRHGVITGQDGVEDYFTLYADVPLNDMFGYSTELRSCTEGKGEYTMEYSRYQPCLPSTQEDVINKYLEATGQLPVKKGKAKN
UniProt P41250: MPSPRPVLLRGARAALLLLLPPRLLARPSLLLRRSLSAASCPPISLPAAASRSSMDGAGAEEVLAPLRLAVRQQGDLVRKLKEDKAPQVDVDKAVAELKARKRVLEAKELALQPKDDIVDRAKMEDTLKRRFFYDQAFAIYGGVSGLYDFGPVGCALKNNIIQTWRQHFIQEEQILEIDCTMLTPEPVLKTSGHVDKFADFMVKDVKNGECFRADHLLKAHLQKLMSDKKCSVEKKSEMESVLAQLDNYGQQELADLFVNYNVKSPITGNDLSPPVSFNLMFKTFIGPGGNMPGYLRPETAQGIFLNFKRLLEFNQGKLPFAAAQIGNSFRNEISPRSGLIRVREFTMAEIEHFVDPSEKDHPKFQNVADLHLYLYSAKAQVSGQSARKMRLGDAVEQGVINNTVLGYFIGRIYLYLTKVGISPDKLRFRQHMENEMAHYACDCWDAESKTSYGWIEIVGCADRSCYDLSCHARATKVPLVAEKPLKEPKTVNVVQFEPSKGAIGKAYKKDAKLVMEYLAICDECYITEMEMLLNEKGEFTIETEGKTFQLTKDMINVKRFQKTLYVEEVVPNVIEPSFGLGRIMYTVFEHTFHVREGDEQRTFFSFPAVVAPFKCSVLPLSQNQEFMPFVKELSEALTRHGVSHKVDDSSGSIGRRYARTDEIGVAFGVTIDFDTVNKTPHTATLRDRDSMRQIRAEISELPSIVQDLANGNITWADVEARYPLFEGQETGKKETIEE
UniProt Q7Z6M2: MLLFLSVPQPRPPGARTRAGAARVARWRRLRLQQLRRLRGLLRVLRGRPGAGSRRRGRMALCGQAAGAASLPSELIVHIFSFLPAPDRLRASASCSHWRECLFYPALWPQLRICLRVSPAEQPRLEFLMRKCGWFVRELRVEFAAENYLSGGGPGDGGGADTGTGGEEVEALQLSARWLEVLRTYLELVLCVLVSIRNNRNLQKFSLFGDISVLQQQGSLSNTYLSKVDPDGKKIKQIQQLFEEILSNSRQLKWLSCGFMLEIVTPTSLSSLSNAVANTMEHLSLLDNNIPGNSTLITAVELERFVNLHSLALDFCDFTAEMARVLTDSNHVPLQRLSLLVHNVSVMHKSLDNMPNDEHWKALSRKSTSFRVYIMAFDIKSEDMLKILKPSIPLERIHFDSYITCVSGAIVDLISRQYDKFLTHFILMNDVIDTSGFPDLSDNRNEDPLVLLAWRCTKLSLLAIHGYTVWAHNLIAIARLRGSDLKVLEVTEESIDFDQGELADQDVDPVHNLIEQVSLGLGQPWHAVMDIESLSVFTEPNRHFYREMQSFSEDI
UniProt Q8NEZ5: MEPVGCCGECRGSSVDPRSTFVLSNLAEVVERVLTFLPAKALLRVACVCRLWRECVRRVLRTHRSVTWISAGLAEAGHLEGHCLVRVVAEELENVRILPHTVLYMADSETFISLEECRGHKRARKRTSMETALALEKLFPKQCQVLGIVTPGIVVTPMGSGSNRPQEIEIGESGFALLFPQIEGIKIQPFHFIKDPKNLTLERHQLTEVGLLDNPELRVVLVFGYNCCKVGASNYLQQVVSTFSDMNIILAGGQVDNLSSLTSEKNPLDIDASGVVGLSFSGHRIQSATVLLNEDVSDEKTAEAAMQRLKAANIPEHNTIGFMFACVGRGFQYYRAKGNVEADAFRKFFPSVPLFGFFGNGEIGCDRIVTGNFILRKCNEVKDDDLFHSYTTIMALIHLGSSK
UniProt P08754, whole entry: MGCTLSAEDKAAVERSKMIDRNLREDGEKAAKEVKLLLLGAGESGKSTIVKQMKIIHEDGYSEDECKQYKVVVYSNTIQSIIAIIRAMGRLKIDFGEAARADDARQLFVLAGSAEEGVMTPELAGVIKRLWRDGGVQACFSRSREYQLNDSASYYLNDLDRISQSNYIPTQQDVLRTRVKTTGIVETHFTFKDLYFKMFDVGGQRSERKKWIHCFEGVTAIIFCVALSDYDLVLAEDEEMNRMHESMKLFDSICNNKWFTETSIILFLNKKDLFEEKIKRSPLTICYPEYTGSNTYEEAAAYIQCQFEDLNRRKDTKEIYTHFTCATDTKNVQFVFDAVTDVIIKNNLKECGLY

The list shows a part of the results.

Compound in this assay: COc1ccc(Cn2ccc3cc(C)c(C(=O)NO)cc32)cc1
Kind of assay: dose-dependent thermal stabilisation call (2D-TPP, DLPTP, 10% FDR) (binary (1 = stabilised)); higher = stabilised by the compound. The settings on record: system: HL-60 intact cells; concentration range 0.04-10 µM. As to the method:
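2D thermal proteome profiling in intact HL-60 cells treated with BRD-3811 (0, 0.04, 0.29, 2, 10 uM) for 90 min at 37 C, then heated 3 min at one of 12 temperatures (42-63.9 C). Soluble protein was quantified by TMT10 MS. The value is the DLPTP call of the paper: dose-dependent thermal stabilisation over all temperatures at 10% FDR (F-test of a dose-response against a flat model); one experiment, one call per tested protein.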
With GK5 (UniProt Q6ZS86), the “dose-dependent thermal stabilisation call” value is inactive: 0.
As for FBN2 (UniProt P35556), the figure is inactive: 0; as for FKSG24 (UniProt Q567V2), inactive: 0.
In the case of FAM62A (UniProt Q9BSJ8), the “dose-dependent thermal stabilisation call” value is inactive: 0.
Turning to GNB1 (UniProt P62873), the “dose-dependent thermal stabilisation call” value is inactive: 0.
To FGFR1OP2 (UniProt Q9NVK5) belongs inactive: 0; to GALT (UniProt P07902), inactive: 0.
To GALNT1 (UniProt Q10472) belongs inactive: 0; to FTSJD2 (UniProt Q8N1G2), inactive: 0.
To GNA13 (UniProt Q14344) belongs inactive: 0; to GNB2 (UniProt P62879), inactive: 0; to FOXRED1 (UniProt Q96CU9), inactive: 0.
With FTL (UniProt P02792), the “dose-dependent thermal stabilisation call” value is inactive: 0.
As for FUNDC2 (UniProt Q9BWH2), the figure is inactive: 0; as for FOSB (UniProt P53539), inactive: 0.
As for FLJ11506, the figure is inactive: 0; as for FLOT1 (UniProt O75955), inactive: 0; as for GCC1 (UniProt Q96CN9), inactive: 0.
Turning to FAR1 (UniProt Q8WVX9), the “dose-dependent thermal stabilisation call” value was inactive: 0.
Turning to GMFG (UniProt O60234), the “dose-dependent thermal stabilisation call” value was inactive: 0.
As for FTSJ1 (UniProt Q9UET6), the figure is inactive: 0; as for GBA2 (UniProt Q9HCG7), inactive: 0.
To FEM1A (UniProt Q9BSK4) belongs inactive: 0.
To FOXK1 (UniProt P85037) belongs inactive: 0; to GFM1 (UniProt Q96RP9), inactive: 0; to GARS (UniProt P41250), inactive: 0.
Take FAT1 (UniProt Q14517): the “dose-dependent thermal stabilisation call” value is inactive: 0.
Regarding GGPS1 (UniProt O95749), the “dose-dependent thermal stabilisation call” value was inactive: 0.
To GM2A (UniProt P17900) belongs inactive: 0; to GLRX5 (UniProt Q86SX6), inactive: 0; to FBXO33 (UniProt Q7Z6M2), inactive: 0.
To FBXL20 (UniProt Q96IG2) belongs inactive: 0; to FBXO22 (UniProt Q8NEZ5), inactive: 0.
For the target G3BP2 (UniProt Q9UN86), the “dose-dependent thermal stabilisation call” value is inactive: 0.
As for GNAI2 (UniProt P04899), the figure is inactive: 0; as for GNAI3 (UniProt P08754), inactive: 0; as for FKBP15 (UniProt Q5T1M5), inactive: 0.
To FTH1 (UniProt P02794) belongs inactive: 0.
Turning to GFI1 (UniProt Q99684), the “dose-dependent thermal stabilisation call” value was inactive: 0.
Consider GLCCI1 (UniProt Q86VQ1), for which the “dose-dependent thermal stabilisation call” value was inactive: 0.
